Patent US20220096602A1, “LIF THERAPY FOR INDUCING INTESTINAL EPITHELIAL CELL REGENERATION” (Rutgers, the State University of New Jersey, priority 2019, published 2022)
At least one compound was matched to its structure with a doubt left.

Tests used:
[1] = system: LIF KO intestinal organoids; test: Intestinal organoid culture: growth and proliferation of LIF KO organoids; type: cell-based, mouse
Description: (§1) Crypt isolation and organoid culture were performed as described previously (Nan Gao's paper, 2015, Development). Crypts were isolated from the mouse small intestine. 150-200 crypts were embedded in growth factor-reduced Matrigel and cultured with mouse ENR organoid culture medium containing 1×B27 (Life Tech Gibco), 1×N2 (Life Tech Gibco), 1 mM N-acetylcysteine (Sigma), 50 ng/ml of EGF (Life Technology), 100 ng/ml of Noggin (R&D System), and 1 μg/ml of R-spondin 1 (R&D system). Recombinant mouse LIF (Millipore), wortmannin (Cell Signaling Technology) and CHIR99021 (Stemgent) were used for organoid treatment.
(§2) The size organoid was evaluated by quantify surface area of horizontal cross section of organoids acquired from multiple random non-overlapping pictures by an Olympus inverted microscope using ImageJ software. The vertical direction of expansion was not included in the calculations. n≥30/group. The percentages of budding organoids were analyzed by light microscopy at different days during organoid culture. n≥100/group.
(§3) IF staining of organoids was performed as previously described (Gao and Kaestner, 2010). In brief, organoids were fixed with 4% paraformaldehyde for 10 min, treated with 0.5% TritonX-100 for 10 min and blocked with 10% goat serum in IF buffer (0.1% BSA, 0.2% Triton X100, 0.05% Tween-20, 0.05% NaN3 in PBS) for 2 hours. […]

[2] = system: WT intestinal organoids; test: Intestinal organoid culture: growth and proliferation of WT organoids; type: cell-based, mouse
Description: as §1, §2, §3

For `COC[C@H]1OC(=O)c2coc3c2[C@@]1(C)C1=C(C3=O)[C@@H]2CCC(=O)[C@@]2(C)C[C@H]1OC(C)=O` [Wortmannin], the “rescue effect of recombinant LIF on the growth of LIF KO organoids” value ([1]; inhibitor 1 μM with LIF 50 ng/ml) was “largely abolished”, the “inhibitory effects on organoid growth and cell proliferation in LIF KO organoids” value ([1]; inhibitor 1 μM, compared with WT organoids) was “much less pronounced” and the “growth of WT organoids and cell proliferation (surface area, organoid formation, Ki67+ cells)” value ([2]; inhibitor 1 μM, WT organoids) was “greatly inhibited”. The “stem cell number in WT organoids” value ([2]; organoids from WT, Lgr5-GFP mouse crypts) was “greatly decreased”.
